Data on 1 compound can be found in article PMC8038955, “Antimicrobial D-amino acid oxidase-derived peptides specify gut microbiota” (Cellular and Molecular Life Sciences: CMLS, 2021).

The test has as its system Staphylococcus aureus ATCC 6538P. Nature of the test: MIC, broth microdilution. Format: cell-based. As to conditions: ATCC6538P. How it is done: MIC (Minimum Inhibitory Concentration) analyses were performed on Gram-positive and Gram-negative bacteria by a broth microdilution method previously described, with minor modifications. In details, assays were carried out in Nutrient Broth 0.5× (Difco, Detroit, MI, USA) using sterile 96-well polypropylene microtiter plates (cat. 3879, Costar Corp., Cambridge, MA, USA). Bacterial strains were grown in Luria–Bertani (LB) medium overnight at 37 °C and then diluted in nutrient broth at a final concentration of ~ 5 × 10^5 CFU/mL per well. […] Peptide concentrations were determined by spectrophotometric analysis using the extinction coefficients calculated by the ProtParam tool (http://web.expasy.org/protparam/). Twofold serial dilutions of peptides were carried out in the test wells (0.2–100 μM concentration range). Plates were incubated overnight at 37 °C. MIC value was taken as the lowest concentration at which growth was inhibited. Three independent experiments were performed for each MIC value. […] MIC values were measured on: Pseudomonas aeruginosa PAO1, Acinetobacter baumanii ATCC 17878, Escherichia coli ATCC 25922, Salmonella typhimurium ATCC 14028, Salmonella enteritidis 706 RIVM (kindly provided by Prof. E. Veldhuizen, Utrecht University, Holland), Staphylococcus aureus ATCC 6538P, and Enterococcus faecalis ATCC 29212.
Background: In broth dilution the organism is exposed to a series of concentrations in liquid medium.

In brackets after ≈: the same amount, converted by molar mass.

In the case of `CN[C@H](CC(C)C)C(=O)N[C@H]1C(=O)N[C@@H](CC(N)=O)C(=O)N[C@H]2C(=O)N[C@H]3C(=O)N[C@H](C(=O)N[C@H](C(=O)O)c4cc(O)cc(O)c4-c4cc3ccc4O)[C@H](O)c3ccc(c(Cl)c3)Oc3cc2cc(c3O[C@@H]2O[C@H](CO)[C@@H](O)[C@H](O)[C@H]2O[C@H]2C[C@](C)(N)[C@H](O)[C@H](C)O2)Oc2ccc(cc2Cl)[C@H]1O` [Vancomycin, vancomycin], the lowest concentration to inhibit growth (MIC) was 0.5 µg/mL (≈ 0.345 µM).
